Values of other authors as cited in US8241397B2, “Adsorptive gas sampler using ionic nano-droplets” (Honeywell International Inc., priority 2008, dated 2012).
Where two headings read alike, the source gives them in different places.

For Cn1c(=O)c2c(ncn2C)n(C)c1=O [Caffeine, reference compound], the “Capturing Efficiency (%)” value (concentration 10 ppt, solvent sprayed Water/MeOH, Fenn US 2004/0023411A1) is listed as “than 96%”.

In the case of S1SSSSSSS1 [Sulfur], the “Capturing Efficiency (%)” value (concentration 50 ppm, solvent sprayed Water, Richards US 4,095,962) is listed as “than 99%”.
